PubChem BioAssay AID1159578 – Peter MacCallum Cancer Centre, 2015

Test: 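Knock-downs that alter how fast lymphatic endothelial cells migrate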 (primary screen)
Cells: human lymphatic endothelial cells
Reagents: siRNA pool against human genes, 40 nM
Duration: 48 h after transfection
Measurement: 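High-content imaging of dye-stained cells in a scratch assay measures filled wound area and nuclei per well; duplicate means given as ratio to mock and robust z-score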
Scale: migration robust z-score: higher = faster migration into the scratch; nuclei per well: higher = more cells in the well
Hit rule: 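Migration changed when robust z exceeds 2 or falls below -2 and mean nuclei number is at least 3300; otherwise not called changed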
Calls: active = migration changed; inactive = no migration change, or too few cells
This is one part, drawn at random, of about 18,000 reagents tested. About 1,030 of them (5.7%) count as active. 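Inactive calls also include pools with fewer than 3300 nuclei, whose migration was not assessed.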 Raw values are not corrected between plates. Not all columns of the deposit are shown. No sequences are given here.

PRDM9 [SID255359208]
- migration robust z-score: 0.68
- migration class with cell-count check: migration z between -2 and 2; enough cells
- nuclei per well, duplicate mean: 4642
- outcome: inactive

ZNF135 [SID255353236]
- migration robust z-score: 1.58
- migration class with cell-count check: migration z between -2 and 2; enough cells
- nuclei per well, duplicate mean: 7040
- outcome: inactive

FARP2 [SID255354611]
- migration robust z-score: -0.29
- migration class with cell-count check: migration z between -2 and 2; enough cells
- nuclei per well, duplicate mean: 5831
- outcome: inactive

COPS5 [SID255355502]
- migration robust z-score: -0.28
- migration class with cell-count check: migration z between -2 and 2; enough cells
- nuclei per well, duplicate mean: 5806
- outcome: inactive

CCR8 [SID255348981]
- migration robust z-score: 1.92
- migration class with cell-count check: migration z between -2 and 2; enough cells
- nuclei per well, duplicate mean: 6666
- outcome: inactive

SNW1 [SID255355890]
- migration robust z-score: -1.9
- migration class with cell-count check: under 3300 nuclei; migration not judged
- nuclei per well, duplicate mean: 2790
- outcome: inactive

OSMR [SID255354095]
- migration robust z-score: 0.32
- migration class with cell-count check: migration z between -2 and 2; enough cells
- nuclei per well, duplicate mean: 6464
- outcome: inactive

OR5H6 [SID255360269]
- migration robust z-score: 0.34
- migration class with cell-count check: migration z between -2 and 2; enough cells
- nuclei per well, duplicate mean: 6567
- outcome: inactive

SERPINA13P [SID255365468]
- migration robust z-score: -0.76
- migration class with cell-count check: migration z between -2 and 2; enough cells
- nuclei per well, duplicate mean: 6364
- outcome: inactive

SNRPB [SID255352548]
- migration robust z-score: 1.19
- migration class with cell-count check: migration z between -2 and 2; enough cells
- nuclei per well, duplicate mean: 5663
- outcome: inactive

DRD1 [SID255349365]
- migration robust z-score: -0.62
- migration class with cell-count check: migration z between -2 and 2; enough cells
- nuclei per well, duplicate mean: 4956
- outcome: inactive

SPIN2A [SID255358024]
- migration robust z-score: -0.77
- migration class with cell-count check: migration z between -2 and 2; enough cells
- nuclei per well, duplicate mean: 5341
- outcome: inactive

Sorted by “nuclei per well, duplicate mean” (high to low): some entries from above.
ZNF135 [SID255353236]
- migration robust z-score: 1.58
- migration class with cell-count check: migration z between -2 and 2; enough cells
- nuclei per well, duplicate mean: 7040
- outcome: inactive

FARP2 [SID255354611]
- migration robust z-score: -0.29
- migration class with cell-count check: migration z between -2 and 2; enough cells
- nuclei per well, duplicate mean: 5831
- outcome: inactive
